Experimental findings from PubChem BioAssay AID2685 (National Center for Advancing Translational Sciences (NCATS), 2010) are described below.

The test is described as follows: qHTS Assay for Lipid Storage Modulators in Drosophila S3 Cells.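 As to cell number change: cells counted by Cell Tracker Red CMTPX staining in the red channel.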 To be noted: BODIPY lipid droplet fluorescence, 18-24 h; for cell number change: measured here: cell count max response, cells fed with added oleic acid. The method in brief:
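Laser-scanning cytometry quantifies lipid droplet accumulation (500–530 nm total intensity; droplet/cell object ratio) in oleic acid-fed (400 uM added) Drosophila S3 cells treated with a concentration series. 20 uM Triacsin C defined 100% inhibition.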
For orientation: qHTS replaces the single test concentration by a dilution series.

Setting [1] is: measured here: lipid fluorescence (Fed channel) AC50, cells fed with added oleic acid.
The mark [2] stands for this setting: measured here: cell number channel AC50, cells fed with added oleic acid.

This is one part of the list. These are further read-outs of the screen, such as a control signal, another cell line or another target. No call is given for them. The list favours compounds with an active or inconclusive main result. Potencies come from curve fits of mixed quality, noted in brackets.

In the case of `Cc1nn(C)cc1S(=O)(=O)Nc1ccc(F)c(F)c1`, the cell number change is -22.7%.

`CCOC(=O)C1=C(c2ccccc2)NC(=O)NC1c1ccsc1` (centres undefined): the cell number change is 26%. Moreover, under setting [1], the AC50 – broadly, the concentration giving half of the maximal activity seen – is 0.651 µM [falling, partial curve, poor fit].

With `O=C(NNC(=S)NCc1ccc(Cl)cc1)c1ccc(Br)o1`, the cell number change is -29.2%. The AC50 under setting [1] is 29.1 µM [falling, single point].

With `CC(=O)c1cccc(NC(=O)/C(=C\c2cccnc2)NC(=O)c2ccccc2)c1`, the cell number change turned out to be 12.4%. Further, under setting [2], the AC50 is 1.84 µM [rising, single point].

Regarding `COc1ccc2nc(SCC(=O)Nc3ccccc3)[nH]c2c1`, the cell number change is -57.5%. Besides, the AC50 under setting [2] is 23.1 µM [falling, single point].

Regarding `NC(=O)CC(NC(=O)Cc1ccc(Br)cc1)c1ccc(N2CCN(c3ccc(F)cc3)CC2)c([N+](=O)[O-])c1` (centres undefined), the cell number change is -0.319%. In addition, the AC50 under setting [1] was 3.26 µM [falling, partial curve, poor fit].

In the case of `COc1ccccc1C(=O)Nc1ccc(S(=O)(=O)Nc2cc(C)on2)cc1`, the half-maximal activity concentration (AC50) under setting [2] is 0.103 µM [rising, full curve, poor fit].

Regarding `CC(=O)c1ccc(-c2ccc(C(=O)NCC(c3ccc(F)cc3)N3CCOCC3)o2)cc1` (centres undefined), the cell number change was -0.679%. Also, under setting [1], the AC50 is 0.58 µM [falling, full curve, poor fit].

`NS(=O)(=O)c1ccc(NC(=O)CN2C(=O)CCC2=O)cc1`: the cell number change was -13.8%.

`COc1cc(C(=O)Nc2ccc(-c3nnc(-c4ccco4)o3)cc2)cc(OC)c1OC`: the cell number change is -34.4%. Moreover, the AC50 under setting [2] was 29.1 µM [falling, single point]. Also, the AC50 under setting [1] was 23.1 µM [falling, single point].

In the case of `CCSc1nc2c(c(=O)[nH]1)C(c1ccncc1)C(C(=O)OC(C)C)=C(C)N2` (centres undefined), the cell number change was -16%.

`COc1ccccc1/C=C/C(=O)OCC(=O)Nc1c(C)nn(-c2ccccc2)c1C`: the cell number change came to 13.8%. Under setting [1], the half-maximal activity concentration (AC50) is 16.4 µM [rising, partial curve].

`CC1CC(C)CN(C/C=C/c2ccccc2[N+](=O)[O-])C1` (centres undefined): the cell number change was -13%. For the same compound, under setting [2], the AC50 is 0.146 µM [rising, full curve, poor fit].

Take `CC(C)COc1ccc(C(=O)NC(CC(C)C)C(=O)O)cc1` (centres undefined): the cell number change is -12.2%. The AC50 under setting [2] is 0.13 µM [falling, full curve, poor fit]. Under setting [1], the AC50 was 4.11 µM [falling, full curve, poor fit].

On to `COc1ccc(-c2c(C#Cc3ccsc3)c3ccccc3n2C)cc1`, for which the cell number change came to 5.83%.

In the case of `C=CCn1c(SCC(=O)Nc2ccc(N3CCOCC3)cc2)nnc1-c1ccco1`, the cell number change is -13.2%. For the same compound, under setting [1], the AC50 is 35.5 µM [rising, single point].

For the compound `CCc1cccc(NC(=O)CCSCCC(=O)Nc2cccc(CC)c2)c1`, the cell number change was -3.94%.

`Clc1ccc(-c2nn3c(-c4ccccc4)nnc3s2)cc1`: the cell number change was -16.4%. For the same compound, under setting [1], the half-maximal activity concentration (AC50) is 2.91 µM [falling, partial curve, poor fit].

On to `CC(=O)c1ccc(S(=O)(=O)NCCCC(=O)NCCc2ccccn2)cc1`, for which the cell number change came out at 4.9%. In addition, under setting [1], the AC50 is 0.82 µM [rising, partial curve, poor fit].

With `CC(=O)N1CCN(C(=S)Nc2ccc(Oc3ccccc3)cc2)CC1`, the AC50 under setting [2] is 6.51 µM [falling, single point].

For `Cc1nc(COC(=O)c2ccc(CO)cc2)cs1`, the cell number change was -55.1%. Moreover, the AC50 under setting [2] was 1.64 µM [falling, partial curve].

Take `Cc1cccc(C)c1NC(=O)CN(C)C(=O)c1cccc(S(=O)(=O)N2CCN(c3ccc(F)cc3)CC2)c1`: the cell number change was -24%. The half-maximal activity concentration (AC50) under setting [1] was 0.82 µM [falling, single point].

Take `CCC(=O)NC(=S)Nc1ccc(NC(=S)NC(=O)c2ccc(C)cc2)cc1`: the cell number change stood at 16.9%. Under setting [1], the AC50 is 2.91 µM [rising, single point].

`CCN(CC)C(=O)Cn1cc(S(=O)(=O)CC(=O)N2CCCCCC2)c2ccccc21`: the cell number change was -25.8%. The half-maximal activity concentration (AC50) under setting [1] was 20.6 µM [falling, single point].

As to `CCCCn1c(N)c(N(CCOC)C(=O)CSCC(=O)Nc2cccc(C)c2)c(=O)[nH]c1=O`, the cell number change was found to be 21%. For the same compound, the AC50 under setting [2] was 0.291 µM [rising, full curve, poor fit].

For the compound `CC#CCN1c2ccccc2[C@]23C[C@@H](C(=O)OC)N(C(C)=O)C2=NC(C(=O)OC)=C(C(=O)OC)[C@H]13`, the cell number change was 9.15%. The AC50 under setting [2] is 0.0731 µM [rising, full curve, poor fit].

For `COc1ccc(N(CC(=O)Nc2ccccc2C(=O)NCCc2ccccc2)S(C)(=O)=O)cc1OC`, the cell number change turned out to be 25.1%. Also, the AC50 under setting [1] was 29.1 µM [rising, single point].

As for `COc1ccc(/C=C2/SC(=S)N(Cc3ccccc3)C2=O)cc1O`, the AC50 under setting [1] was 20.6 µM [falling, partial curve].

For `Cc1cc(C)cc(OCC(=O)OCC(=O)c2ccc3c(c2)NC(=O)CO3)c1`, the cell number change is -34.5%. For the same compound, the AC50 under setting [2] was 3.26 µM [falling, full curve]. For the same compound, the AC50 under setting [1] was 6.51 µM [falling, single point].

For `COc1cccc(=O)c2c(C)oc(C)c12`, the cell number change is 12.3%. Further, the AC50 under setting [1] was 0.00517 µM [rising, full curve, poor fit].

`CC(C)Cc1ccc(C(C)C(N)=NCCc2ccccc2)cc1` (centres undefined): the cell number change is -35.5%. Besides, under setting [2], the AC50 is 18.4 µM [falling, single point].

Turning to `Cc1ccc(-c2noc(-c3ccccc3C(=O)NCC3CCCO3)n2)cc1` (centres undefined), under setting [1], the AC50 was 3.66 µM [falling, single point].

In the case of `CCN(CC)c1ccc(/C=N/NC(=O)CC(C)C)cc1`, the cell number change was determined as 12.3%.

As for `COCCCn1c(=O)c2ccccc2n(CC(=O)NC2CCCC2)c1=O`, the cell number change was found to be 0.84%. Further, the AC50 under setting [1] is 29.1 µM [rising, single point].

For `CC(=O)Nc1ccc(S(=O)(=O)NCCC(=O)OC(C)C(=O)c2ccc(C)cc2)cc1` (centres undefined), the cell number change was -50%. Under setting [2], the AC50 is 20.6 µM [falling, partial curve].

As for `CCOCCCN(C(=O)Cn1nnc(-c2ccc(C)o2)n1)C(C(=O)NC1CCCC1)c1ccc(C)o1` (centres undefined), the cell number change stood at 4.84%. Besides, under setting [1], the AC50 was 29.1 µM [rising, single point].

`COC(=O)c1c(NC(=O)/C=C/C(=O)O)sc(C)c1-c1ccc(C)c(C)c1`: the cell number change is -2.62%. Besides, the AC50 under setting [1] was 3.26 µM [falling, full curve].

With `Cn1c(=O)c2cc(S(=O)(=O)NC(C(=O)Nc3cccc(F)c3)c3ccccc3)ccc2n(C)c1=O` (centres undefined), the cell number change is -1.84%. In addition, the AC50 under setting [1] is 7.31 µM [rising, partial curve].
